No constants are given. Whether binding was seen depends on the method and setting. In cells and extracts the contact can be indirect. Some results given as binding are weak or reduced against the parent protein; the word gives no strength.
Columns and labels:
[1] = target: mitogen-activated protein kinase 2 (MK2), endogenous in HepG2 cells (human (endogenous in HepG2)) (UniProt P49137); experiment: co-IP; endogenous proteins in HepG2 cells; reciprocal, with anti-COPS5 or anti-MK2 antibody
[2] = target: His-tagged MK2 (UniProt P49137); experiment: co-IP; HEK293T cells co-transfected with COPS5-Flag and MK2-His plasmids; anti-Flag or anti-His antibody
[3] = target: Flag-tagged COPS5 (UniProt Q92905); experiment: as above
[4] = target: COP9 signalosome subunit 5 (COPS5), endogenous in HepG2 cells (human (endogenous in HepG2)) (UniProt Q92905); experiment: co-IP; endogenous proteins in HepG2 cells; reciprocal, with anti-COPS5 or anti-MK2 antibody

Chains of the proteins cited; added tags and fusions are not shown.
UniProt P49137: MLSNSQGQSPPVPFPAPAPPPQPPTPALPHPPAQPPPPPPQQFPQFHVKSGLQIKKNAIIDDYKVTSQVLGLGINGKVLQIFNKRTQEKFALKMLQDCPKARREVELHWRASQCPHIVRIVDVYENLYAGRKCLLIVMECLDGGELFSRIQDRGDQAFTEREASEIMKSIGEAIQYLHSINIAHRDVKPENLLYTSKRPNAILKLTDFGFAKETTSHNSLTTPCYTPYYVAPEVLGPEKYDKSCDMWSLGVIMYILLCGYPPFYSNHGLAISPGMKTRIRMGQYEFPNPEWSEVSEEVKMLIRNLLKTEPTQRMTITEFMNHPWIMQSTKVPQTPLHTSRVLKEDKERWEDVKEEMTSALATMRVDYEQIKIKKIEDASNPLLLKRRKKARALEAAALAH
UniProt Q92905: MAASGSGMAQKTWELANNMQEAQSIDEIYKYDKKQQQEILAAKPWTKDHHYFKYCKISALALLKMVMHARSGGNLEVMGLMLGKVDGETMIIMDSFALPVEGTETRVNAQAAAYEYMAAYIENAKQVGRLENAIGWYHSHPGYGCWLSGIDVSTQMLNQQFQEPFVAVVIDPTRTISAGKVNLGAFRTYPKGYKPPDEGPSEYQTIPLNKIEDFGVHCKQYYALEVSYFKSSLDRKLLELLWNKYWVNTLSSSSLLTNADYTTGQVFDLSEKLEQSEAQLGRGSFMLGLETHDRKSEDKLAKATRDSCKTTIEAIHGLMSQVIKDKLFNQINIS

Substance: COP9 signalosome subunit 5 (COPS5), endogenous in HepG2 cells (from UniProt Q92905 1-334)
- binding [1]: binds

Substance: Flag-tagged COPS5 (from UniProt Q92905 1-334)
- binding [2]: binds

Substance: His-tagged MK2 (from UniProt P49137 1-400)
- binding [3]: binds

Substance: mitogen-activated protein kinase 2 (MK2), endogenous in HepG2 cells (from UniProt P49137 1-400)
- binding [4]: binds

Source: article PMC12165036
